These are yes or no findings as the source states them, for the method shown. Some entries that bind do so weakly or less than the wild type.
Legend:
[1] = target: ARABIDOPSIS THALIANA P450-REDUCTASE 2 (ATR2), NADPH-cytochrome P450 reductase (Arabidopsis thaliana) (UniProt Q9SUM3); assay: two-hybrid; mating-based split-ubiquitin membrane yeast two-hybrid; CBR1, ATR1 and ATR2 as baits (pMetYC, Cub), CB5D as prey (pNX32, NubG); diploid cells diluted 10^-1 to 10^-3 on selective SD/-Trp, -Leu, -Ade, -His, -Ura, -Met medium, 28°C, 3 days
[2] = target: T1, Arabidopsis thaliana NADH-cytochrome b5 reductase 1 (CBR1) (Arabidopsis thaliana) (UniProt Q9ZNT1); assay: as above
T1 sequence: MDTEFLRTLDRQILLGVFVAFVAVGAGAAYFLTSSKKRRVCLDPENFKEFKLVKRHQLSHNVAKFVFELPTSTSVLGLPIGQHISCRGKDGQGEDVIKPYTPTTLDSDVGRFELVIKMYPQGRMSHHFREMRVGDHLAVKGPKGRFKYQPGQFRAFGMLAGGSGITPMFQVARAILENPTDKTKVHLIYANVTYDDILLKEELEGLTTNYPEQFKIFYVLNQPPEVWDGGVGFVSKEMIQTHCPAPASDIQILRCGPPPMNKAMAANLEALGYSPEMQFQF

Protein sequences, listed by entry. Tags and fused reporters are not part of them.
UniProt Q9SUM3: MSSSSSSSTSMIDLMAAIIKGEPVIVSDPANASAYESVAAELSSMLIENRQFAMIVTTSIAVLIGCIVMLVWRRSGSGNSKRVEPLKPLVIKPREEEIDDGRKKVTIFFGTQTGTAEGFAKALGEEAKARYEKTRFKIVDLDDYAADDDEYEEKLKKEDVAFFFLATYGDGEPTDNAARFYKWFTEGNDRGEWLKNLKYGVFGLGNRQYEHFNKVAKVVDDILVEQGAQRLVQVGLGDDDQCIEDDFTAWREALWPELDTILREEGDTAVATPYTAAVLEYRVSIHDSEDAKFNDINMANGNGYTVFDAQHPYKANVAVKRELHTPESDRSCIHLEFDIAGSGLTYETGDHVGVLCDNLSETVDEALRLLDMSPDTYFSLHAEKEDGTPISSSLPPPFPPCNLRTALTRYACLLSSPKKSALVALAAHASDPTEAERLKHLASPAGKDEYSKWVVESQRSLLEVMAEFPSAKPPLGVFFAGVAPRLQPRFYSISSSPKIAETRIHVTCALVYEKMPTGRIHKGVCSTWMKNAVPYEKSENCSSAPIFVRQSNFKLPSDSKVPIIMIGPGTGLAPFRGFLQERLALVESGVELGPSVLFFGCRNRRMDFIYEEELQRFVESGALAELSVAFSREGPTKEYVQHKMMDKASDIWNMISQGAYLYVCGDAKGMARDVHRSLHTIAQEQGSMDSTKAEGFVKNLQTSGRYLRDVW

binding [1]: binds | binding [2]: binds
Substance: Arabidopsis thaliana cytochrome b5 isoform D (AtCB5D) (from UniProt Q9ZWT2 1-140)
